Measured values: patent publication US5880258A (dated 1999)
Strings that start with PEPTIDE1 are HELM notation: dots part the residues, brackets hold end groups and non-standard residues.

Experiment: general procedure: Boc solid-phase peptide synthesis; Boc-Gln-OCH2-PAM resin; symmetrical anhydride method
Settings: whole synthesis, HPLC (Waters u-Bondapak C18, 3.9x150 mm)

PEPTIDE1{G.D.F.E.E.I.P.E.Y.Y.L.Q}$$$$V2.0
final HPLC purity: over 99%

PEPTIDE1{G.D.F.E.E.I.P.Y.Y.Y.L.Q}$$$$V2.0
final HPLC purity: over 99%
